Measurements: US5428019A, “Bombesin analogs” (Merrell Dow Pharmaceuticals Inc., priority 1994, dated 1995)
At least one peptide structure holds a part that was inferred or is arguable (an end, a ring closure or a residue). Where a SMILES comes first, the peptide text is derived from it. [ ]: non-standard residue; d: D form. The star is where a group is joined. Pheψ(CH2S)LeuNH2 = CC(C)C[C@H](SC[C@H](Cc1ccccc1)N*)C(N)=O; X2 = CC(C)C[C@@H](CN[C@@H](CC(C)C)C(N)=O)N*; Palmitoyl = CCCCCCCCCCCCCCCC(=O)*; pGlu = O=C1CC[C@@H](C(=O)O)N1; Lauroyl = CCCCCCCCCCCC(=O)*

By UniProt entry, the sequences of proteins in these tests, tags left out. Where a name states a change or a piece, a line headed by the entry shows the natural chain unless it says otherwise.
UniProt P21729: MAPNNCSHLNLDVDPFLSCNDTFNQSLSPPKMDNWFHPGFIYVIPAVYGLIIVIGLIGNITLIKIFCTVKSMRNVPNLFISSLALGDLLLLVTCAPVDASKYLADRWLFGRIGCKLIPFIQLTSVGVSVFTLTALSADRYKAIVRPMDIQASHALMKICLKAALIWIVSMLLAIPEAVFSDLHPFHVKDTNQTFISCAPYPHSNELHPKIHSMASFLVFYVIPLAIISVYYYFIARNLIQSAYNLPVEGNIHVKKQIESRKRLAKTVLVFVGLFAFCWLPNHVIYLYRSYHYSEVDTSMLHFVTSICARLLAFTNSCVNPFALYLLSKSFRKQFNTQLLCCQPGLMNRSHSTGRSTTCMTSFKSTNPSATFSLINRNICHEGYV

molecular target: T1, Bombesin Receptor (Mus musculus, UniProt P21729); experiment: Phosphatidylinositol turnover in chopped mouse pancreas; assay type: cell-based; set-up: key: (+) represents agonist activity; (-) indicates no agonist activity
T1 construct: Pancreata from mice were chopped at 350 μm with a tissue chopper and pooled; from tissue; host or cells: chopped mouse pancreas
Description: Pancreata from mice were chopped at 350 μm with a tissue chopper and pooled. The chopped tissue was washed twice with oxygenated Krebs-Hepes, then incubated for 30 minutes in 37° C. oxygenated Krebs-Hepes buffer with fresh buffer after 15 minutes. The tissue was then incubated in this buffer containing 200 μCi of [^3 H] inositol at 37° C. for 1 hour. The tissue was then washed twice and incubated for another 30 minutes in oxygenated Krebs-Hepes (containing 10 mM Li^+) at 37° C. with a fresh buffer change after 15 minutes. Portions of the tissue mass (approximately 10 mg per assay tube) were then placed in Li^+ buffer with protease inhibitors, (40 μg/ml bacitracin, 4 μg/ml leupeptin, 4 μg/ml chymostatin, 8 μg/ml thiorphan), 0.1% BSA, and 0.1-10 μM peptide in a final volume of 250 μl. After 60 minutes at room temperature, the phosphatidylinositol turnover was terminated by the addition of 940 μl chloroform:methanol (1:2), followed by 310 μl chloroform, followed by 310 μl water. Each tube was then vortexed for 5 seconds and then centrifuged at 2500 x g for 10 minutes to separate the phases. 50 μl of the bottom phase (chloroform) was withdrawn from each tube and placed in a counting vial, dried, and counted in scintillation fluid. 900 μl of the top (aqueous) phase were then mixed with 2.1 ml water and loaded onto a 0.5 ml Biorad AG-1X8 (formate) ion exchange column. The material on the columns was washed in order with: 1) 10 ml of water 2) 5 ml of 5 mM disodium tetraborate/60 mM sodium formate 3) 10 ml of 1 M ammonium formate in 0.1 M formic acid. The final (third) wash was collected and one ml was mixed with 14 ml of Bio-Safe scintillant and counted. The ratio of these counts (total inositol phosphates) to the corresponding organic phase counts (inositol incorporated into the tissue) was then calculated for each sample. The ratios in the presence of test compound and/or standards were then compared to the ratios for control tubes (i.e., no stimulating agonist). The abilities of test compounds to stimulate phosphatidyl-inositol turnover were determined with the aid of a computer program. […] The ordinate (y-axis) indicates the observed PI turnover as a percentage of control. Values are mean±standard error of triplicate determinations.

| SMILES | PI Turnover Agonist |
| --- | --- |
| CCCCCCCCCCCCCCCC(=O)N[C@@H](CCC(N)=O)C(=O)N[C@@H](Cc1c[nH]c2ccccc12)C(=O)N[C@@H](C)C(=O)N[C@H](C(=O)N[C@H](C)C(=O)N[C@@H](Cc1c[nH]cn1)C(=O)N[C@@H](CC(C)C)C(N)=O)C(C)C [Palmityl[D-Ala^11]bombesin(7-13)amide, Nα-palmityl-Gln--Trp--Ala--Val-D-Ala--His--Leu--NH2] (Palmitoyl-QWAV[dA]HL-NH2) | - |
| CC(C)C[C@@H](C(N)=O)[S+]([O-])C[C@H](Cc1ccccc1)NC(=O)[C@H](Cc1c[nH]cn1)NC(=O)CNC(=O)[C@@H](NC(=O)[C@H](C)NC(=O)[C@H](Cc1c[nH]c2ccccc12)NC(=O)[C@H](CCC(N)=O)NC(=O)[C@@H]1CCC(=O)N1)C(C)C (single isomer, unassigned) [[Phe^8 .psi.[CH2 S(O)]Leu^9 ]litorin II] [pGlu--Gln--Trp--Ala--Val--Gly--His--Phe.psi.[CH2 S(O)]Leu--NH2] | - |
| CCCCCCCCCCCC(=O)N[C@@H](CCC(N)=O)C(=O)N[C@@H](Cc1c[nH]c2ccccc12)C(=O)N[C@@H](C)C(=O)N[C@H](C(=O)N[C@H](C)C(=O)N[C@@H](Cc1c[nH]cn1)C(=O)N[C@@H](CC(C)C)C(N)=O)C(C)C [Lauryl[D-Ala^11]bombesin(7-13)amide, Nα-lauryl-Gln--Trp--Ala--Val-D-Ala--His--Leu--NH2] (Lauroyl-QWAV[dA]HL-NH2) | - |
| CC(C)C[C@@H](C(N)=O)[S+]([O-])C[C@H](Cc1ccccc1)NC(=O)[C@H](Cc1c[nH]cn1)NC(=O)CNC(=O)[C@@H](NC(=O)[C@H](C)NC(=O)[C@H](Cc1c[nH]c2ccccc12)NC(=O)[C@H](CCC(N)=O)NC(=O)[C@@H]1CCC(=O)N1)C(C)C (single isomer, unassigned) [[Phe^8 .psi.[CH2 S(O)]Leu^9 ]litorin I] [pGlu--Gln--Trp--Ala--Val--Gly--His--Phe.psi.[CH2 S(O)]Leu--NH2] | - |
| CC(C)C[C@H](NC(=O)[C@H](CCCNC(=N)N)NC(=O)[C@H](CCC(N)=O)NC(=O)[C@@H]1CCC(=O)N1)C(=O)NCC(=O)N[C@@H](CC(N)=O)C(=O)N[C@@H](CCC(N)=O)C(=O)N[C@@H](Cc1c[nH]c2ccccc12)C(=O)N[C@@H](C)C(=O)N[C@H](C(=O)NCC(=O)N[C@@H](Cc1c[nH]cn1)C(=O)N[C@H](CS[C@@H](CC(C)C)C(N)=O)Cc1ccccc1)C(C)C [[Phe^13 .psi.[CH2 S]Leu^14 bombesin, pGlu--Gln--Arg--Leu--Gly--Asn--Gln--Trp--Ala--Val--Gly--His--Phe.psi.[CH2 S]Leu--NH2] ([pGlu]QRLGNQWAVGH-{Pheψ(CH2S)LeuNH2}) | - |
| CC(C)C[C@H](SC[C@H](Cc1ccccc1)NC(=O)[C@H](Cc1c[nH]cn1)NC(=O)CNC(=O)[C@@H](NC(=O)[C@H](C)NC(=O)[C@H](Cc1c[nH]c2ccccc12)NC(=O)[C@H](CCC(N)=O)NC(=O)[C@@H]1CCC(=O)N1)C(C)C)C(N)=O [[Phe^8 .psi.[CH2 S]Leu^9]litorin, pGlu--Gln--Trp--Ala--Val--Gly--His--Phe.psi.[CH2 S]Leu--NH2] | - |
| CC(C)C[C@@H](CN[C@@H](CC(C)C)C(N)=O)NC(=O)[C@H](Cc1c[nH]cn1)NC(=O)CNC(=O)[C@@H](NC(=O)[C@H](C)NC(=O)[C@H](Cc1c[nH]c2ccccc12)NC(=O)[C@H](CCC(N)=O)NC(=O)[C@H](CC(N)=O)NC(=O)CNC(=O)[C@H](CC(C)C)NC(=O)[C@H](CCCNC(=N)N)NC(=O)[C@H](CCC(N)=O)NC(=O)[C@@H]1CCC(=O)N1)C(C)C [[Leu^13 .psi.{CH2 NH]Leu^14]bombesin, pGlu--Gln--Arg--Leu--Gly--Asn--Gln--Trp--Ala--Val--Gly--His--Leu.psi.[CH2 N]Leu--NH2, reference compound] ([pGlu]QRLGNQWAVGH-X2) | - |
